# Data reported in PubChem BioAssay AID504834 (National Center for Advancing Translational Sciences (NCATS), 2011).
# About 22,000 (6.9%) of roughly 320,000 compounds were called active. Inconclusive means that the source gave no clear call. Such entries were picked first, then a sample of the others. The call rests on the fitted dose curve; in most records, active means well fitted inhibition curve with a large enough effect; inconclusive means small, poorly fitted or top-dose-only effect, or another doubt; inactive means no such curve, though single readings can be large or run the other way. Where the call is inconclusive, the potency comes from a doubtful curve fit.
# Test: Primary qHTS for delayed death inhibitors of the malarial parasite plastid, 96 hour incubation
# Conditions: P. falciparum luciferase reporter growth; series mostly up to 28.7 µM; activity change, negative = inhibition: at the top concentration
# Procedure, shortened: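 Readout is luminescence from an integrated firefly luciferase in P. falciparum. Red cells, 2% hematocrit and 0.05% parasitemia final, were cultured with compound through two parasite generations (96 hours) at 37 C, 5% CO2.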
# On the % scale 0 is the no-effect control and ±100 the full control effect; potency means the concentration at half of the fitted maximal effect.
Structure (SMILES),Potency,"activity change, negative = inhibition"
O=C(Cn1nnc(-c2ccccc2NC(=O)c2ccco2)n1)NC1CCCCC1,"inconclusive: 11.7 µM [inhibitor, single point]",
CC(C)CNC(=O)c1ccc(Cl)c(NC(=O)COc2ccccc2)c1,"inconclusive: 18.5 µM [inhibitor, single point]",
O=[N+]([O-])c1cc(S(=O)(=O)Nc2cccc(Cl)c2)ccc1N/N=C/c1ccc(N2CCOCC2)cc1,"inconclusive: 1.17 µM [inhibitor, full curve, poor fit]",
CC(C)OC(=O)c1c(NC(=O)Cn2cnc([N+](=O)[O-])n2)sc2c1CCCC2,active: 7.38 µM,
O=C(NCc1ccccc1)c1nnc(CS(=O)(=O)c2ccccc2)o1,,inactive: 94.3%
CCOc1ccc(OCCSc2nc3ccccc3[nH]2)cc1,"inconclusive: 13.1 µM [inhibitor, single point]",
CCOC(=O)c1cc(-c2ccc(N3CCOCC3)cc2)nn1-c1ccccc1,"inconclusive: 6.57 µM [inhibitor, partial curve, poor fit]",
COc1ccc(C(=O)NCc2nnc(SCC(=O)c3ccccc3)n2C)cc1,"inconclusive: 5.22 µM [inhibitor, partial curve, poor fit]",
COC(=O)c1cccc(C23CC4(C2)[C@H](CN(Cc2cccnc2)[C@@H]4c2ccccc2)C3c2ccccc2)c1 (some centres undefined),active: 5.86 µM,
CC(C)CC(=O)Nc1nnc(CCc2ccccc2)s1,,inactive: -0.617%
COc1ccc(C2(c3ccc(OC)cc3)NC(=O)N(CC(=O)Nc3ccc(OC(F)F)cc3)C2=O)cc1,"inconclusive: 6.57 µM [inhibitor, partial curve, poor fit]",
CCC1(C)CC(=O)N(c2ccc(F)c(Cl)c2)C(=O)C1,"inconclusive: 11.7 µM [inhibitor, single point]",
O=C(CCCOc1ccccc1)N1CCCCC1,,inactive: 29.6%
CCCOc1ccc(CC(=O)NCCc2ccccc2)cc1OC,"inconclusive: 18.5 µM [inhibitor, single point]",
O=S(=O)(NCc1ccco1)c1ccc2ccccc2c1,,inactive: 9.03%
COc1ccc(-n2c(=O)c(CCC(=O)N3CCC(C)CC3)nc3ccccc32)cc1,"inconclusive: 10.4 µM [inhibitor, partial curve, poor fit]",
CC12CCC(=O)N1C(C(=O)NNC(=O)c1ccc(Cl)cc1)CS2 (centres undefined),"inconclusive: 18.5 µM [inhibitor, single point]",
COC(=O)c1ccc(CN2C(=O)NC(CC(C)C)C2=O)cc1 (centres undefined),,inactive: 20.1% [at 5.75 µM]
O=C(Cn1cnc2cc(Cl)ccc2c1=O)Nc1ccc2c(c1)OCO2,"inconclusive: 0.0047 µM [inhibitor, full curve, poor fit]",

# Single entries from above.
# Value for O=C(Cn1nnc(-c2ccccc2NC(=O)c2ccco2)n1)NC1CCCCC1 under Potency: inconclusive: 11.7 µM [inhibitor, single point]
# Value for CCOC(=O)c1cc(-c2ccc(N3CCOCC3)cc2)nn1-c1ccccc1 under Potency: inconclusive: 6.57 µM [inhibitor, partial curve, poor fit]
